The entries are a selection whose mix differs from that of the whole data set. Calls are pooled over several reports, among them a noisy single-well screen. The list shows a part of the results.
Tests used:
Details in all cases: stereoisomer not certain
UniProt Q8VG53 = target: T1, UniProt Q8VG53
T1 sequence (whole entry): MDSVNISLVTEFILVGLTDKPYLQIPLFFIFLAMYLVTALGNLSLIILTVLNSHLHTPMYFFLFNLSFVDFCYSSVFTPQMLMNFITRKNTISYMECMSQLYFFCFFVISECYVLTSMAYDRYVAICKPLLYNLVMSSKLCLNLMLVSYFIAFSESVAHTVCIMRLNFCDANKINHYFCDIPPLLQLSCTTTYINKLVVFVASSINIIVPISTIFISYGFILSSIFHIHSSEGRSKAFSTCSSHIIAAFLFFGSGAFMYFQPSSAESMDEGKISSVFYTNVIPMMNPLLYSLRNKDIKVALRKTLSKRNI
Method in brief: (§1)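 Each entry records the cell line, G-protein, co-transfected protein and tags used. Methods varied with the source, often transient luciferase assays in mammalian cell lines. A receptor–molecule pair is called responsive (active) if the original authors judged its signal statistically different from baseline and non-responsive (inactive) otherwise.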

Sequences of proteins named here, by UniProt entry; tags and fusion partners are left off. A line that says so, or that is headed by a name, gives the form on record, which may keep a tag or linker.
UniProt Q8VG28, as listed by the source: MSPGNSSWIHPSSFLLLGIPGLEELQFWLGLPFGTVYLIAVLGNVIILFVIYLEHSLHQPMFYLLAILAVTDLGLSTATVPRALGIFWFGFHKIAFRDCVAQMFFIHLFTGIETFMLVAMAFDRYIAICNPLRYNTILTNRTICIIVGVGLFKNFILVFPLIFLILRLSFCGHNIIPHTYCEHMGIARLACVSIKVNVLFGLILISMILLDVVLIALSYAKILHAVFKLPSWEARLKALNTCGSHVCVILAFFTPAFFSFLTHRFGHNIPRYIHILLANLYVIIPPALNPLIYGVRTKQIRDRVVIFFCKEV

UniProt Q8VG64 = target: T2, UniProt Q8VG64
T2 sequence (whole entry): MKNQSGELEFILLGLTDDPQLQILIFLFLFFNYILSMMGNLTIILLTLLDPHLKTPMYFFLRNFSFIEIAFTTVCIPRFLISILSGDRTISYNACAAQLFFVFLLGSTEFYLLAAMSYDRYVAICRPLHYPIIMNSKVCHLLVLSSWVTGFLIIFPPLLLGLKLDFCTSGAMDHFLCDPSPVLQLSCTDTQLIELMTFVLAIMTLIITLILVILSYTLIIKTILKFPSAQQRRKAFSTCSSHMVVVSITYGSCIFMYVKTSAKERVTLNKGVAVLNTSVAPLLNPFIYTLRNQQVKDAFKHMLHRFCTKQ
Method in brief: as §1

UniProt Q8VGB9 = target: T3, UniProt Q8VGB9
T3 sequence (whole entry): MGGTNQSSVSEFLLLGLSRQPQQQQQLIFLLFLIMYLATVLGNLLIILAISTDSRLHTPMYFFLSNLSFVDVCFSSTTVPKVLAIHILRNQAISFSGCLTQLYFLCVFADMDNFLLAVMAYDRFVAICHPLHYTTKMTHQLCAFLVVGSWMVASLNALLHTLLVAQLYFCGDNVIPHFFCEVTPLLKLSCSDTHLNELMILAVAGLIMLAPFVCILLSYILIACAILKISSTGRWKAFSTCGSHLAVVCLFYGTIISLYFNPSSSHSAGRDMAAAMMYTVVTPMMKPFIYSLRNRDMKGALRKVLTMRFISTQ
Method in brief: as §1

UniProt Q8VGC6 = target: T4, UniProt Q8VGC6
T4 sequence (whole entry): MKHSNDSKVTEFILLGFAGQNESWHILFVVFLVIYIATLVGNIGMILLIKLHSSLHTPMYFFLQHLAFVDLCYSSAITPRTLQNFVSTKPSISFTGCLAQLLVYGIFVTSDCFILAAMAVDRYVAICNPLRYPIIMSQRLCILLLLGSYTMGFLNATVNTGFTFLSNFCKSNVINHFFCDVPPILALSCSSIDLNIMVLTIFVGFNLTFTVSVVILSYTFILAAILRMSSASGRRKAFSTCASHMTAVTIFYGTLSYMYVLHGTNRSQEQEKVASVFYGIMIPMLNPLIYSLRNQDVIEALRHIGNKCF
Method in brief: as §1

UniProt Q8VGJ3 = target: T5, UniProt Q8VGJ3
T5 sequence (whole entry): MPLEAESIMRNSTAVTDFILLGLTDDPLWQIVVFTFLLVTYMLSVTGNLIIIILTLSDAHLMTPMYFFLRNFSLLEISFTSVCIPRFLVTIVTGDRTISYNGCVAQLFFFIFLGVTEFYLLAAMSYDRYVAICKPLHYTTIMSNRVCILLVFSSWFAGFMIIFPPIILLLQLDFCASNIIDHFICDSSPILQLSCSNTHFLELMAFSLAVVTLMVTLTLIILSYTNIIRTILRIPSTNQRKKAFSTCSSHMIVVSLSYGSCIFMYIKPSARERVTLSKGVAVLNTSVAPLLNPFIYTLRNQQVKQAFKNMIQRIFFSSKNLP
Method in brief: as §1

UniProt Q8VGL0 = target: T6, UniProt Q8VGL0
T6 sequence (whole entry): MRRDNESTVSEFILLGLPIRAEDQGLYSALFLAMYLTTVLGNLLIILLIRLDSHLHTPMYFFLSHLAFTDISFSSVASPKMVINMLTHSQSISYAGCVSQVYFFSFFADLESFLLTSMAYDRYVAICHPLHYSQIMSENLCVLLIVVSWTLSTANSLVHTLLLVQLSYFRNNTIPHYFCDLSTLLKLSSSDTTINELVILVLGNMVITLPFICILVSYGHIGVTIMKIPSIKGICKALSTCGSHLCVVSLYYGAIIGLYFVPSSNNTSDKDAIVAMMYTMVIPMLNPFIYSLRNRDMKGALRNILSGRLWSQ
Method in brief: as §1

UniProt Q8VG28 = target: UniProt Q8VG28
Method in brief: as §1

UniProt Q8VG49 = target: T7, UniProt Q8VG49
T7 sequence (whole entry): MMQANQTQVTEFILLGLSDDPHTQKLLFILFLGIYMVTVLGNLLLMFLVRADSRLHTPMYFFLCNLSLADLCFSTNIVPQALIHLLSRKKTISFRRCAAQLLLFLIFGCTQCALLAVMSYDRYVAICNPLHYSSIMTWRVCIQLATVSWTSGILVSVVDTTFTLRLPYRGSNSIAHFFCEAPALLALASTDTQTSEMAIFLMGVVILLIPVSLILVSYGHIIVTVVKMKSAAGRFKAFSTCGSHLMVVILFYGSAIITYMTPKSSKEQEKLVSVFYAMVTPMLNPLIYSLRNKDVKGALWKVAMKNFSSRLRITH
Method in brief: as §1

UniProt Q8VG77 = target: T8, UniProt Q8VG77
T8 sequence (whole entry): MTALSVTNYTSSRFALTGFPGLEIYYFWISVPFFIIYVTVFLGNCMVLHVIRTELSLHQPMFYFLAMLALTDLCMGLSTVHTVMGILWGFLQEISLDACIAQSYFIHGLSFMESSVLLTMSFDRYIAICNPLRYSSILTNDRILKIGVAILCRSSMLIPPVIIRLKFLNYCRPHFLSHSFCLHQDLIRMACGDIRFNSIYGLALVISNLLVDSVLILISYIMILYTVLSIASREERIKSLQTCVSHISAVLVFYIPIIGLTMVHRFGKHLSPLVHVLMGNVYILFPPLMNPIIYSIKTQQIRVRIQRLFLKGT
Method in brief: as §1

UniProt Q8VG96 = target: T9, UniProt Q8VG96
T9 sequence (whole entry): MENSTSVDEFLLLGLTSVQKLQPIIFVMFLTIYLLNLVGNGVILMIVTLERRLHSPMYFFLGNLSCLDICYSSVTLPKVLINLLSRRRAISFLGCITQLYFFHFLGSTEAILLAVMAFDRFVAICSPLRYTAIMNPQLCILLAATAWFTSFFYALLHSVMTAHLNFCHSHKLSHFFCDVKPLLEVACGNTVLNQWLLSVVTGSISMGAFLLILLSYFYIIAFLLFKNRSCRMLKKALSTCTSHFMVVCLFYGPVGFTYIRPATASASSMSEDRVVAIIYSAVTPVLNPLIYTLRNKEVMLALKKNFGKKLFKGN
Method in brief: as §1

UniProt Q8VGD7 = target: T10, UniProt Q8VGD7
T10 sequence (whole entry): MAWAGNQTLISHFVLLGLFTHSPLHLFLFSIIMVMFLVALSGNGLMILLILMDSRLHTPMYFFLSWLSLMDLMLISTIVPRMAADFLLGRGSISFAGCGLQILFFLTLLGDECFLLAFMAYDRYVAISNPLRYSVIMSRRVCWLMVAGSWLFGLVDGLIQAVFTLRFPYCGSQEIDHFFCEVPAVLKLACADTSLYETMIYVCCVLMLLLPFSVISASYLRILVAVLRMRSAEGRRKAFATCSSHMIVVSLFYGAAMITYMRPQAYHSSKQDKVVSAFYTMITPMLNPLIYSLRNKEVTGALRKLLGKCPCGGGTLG
Method in brief: as §1

UniProt Q8VGH1 = target: T11, UniProt Q8VGH1
T11 sequence (whole entry): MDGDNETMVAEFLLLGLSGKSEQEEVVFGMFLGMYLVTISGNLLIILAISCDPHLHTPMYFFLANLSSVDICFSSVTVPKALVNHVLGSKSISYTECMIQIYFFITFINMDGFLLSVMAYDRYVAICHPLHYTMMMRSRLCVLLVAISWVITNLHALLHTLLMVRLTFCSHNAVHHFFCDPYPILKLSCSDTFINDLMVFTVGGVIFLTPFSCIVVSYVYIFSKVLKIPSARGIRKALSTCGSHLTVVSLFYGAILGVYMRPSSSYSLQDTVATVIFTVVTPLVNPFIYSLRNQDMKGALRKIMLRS
Method in brief: as §1

UniProt Q8VGJ1 = target: T12, UniProt Q8VGJ1
T12 sequence (whole entry): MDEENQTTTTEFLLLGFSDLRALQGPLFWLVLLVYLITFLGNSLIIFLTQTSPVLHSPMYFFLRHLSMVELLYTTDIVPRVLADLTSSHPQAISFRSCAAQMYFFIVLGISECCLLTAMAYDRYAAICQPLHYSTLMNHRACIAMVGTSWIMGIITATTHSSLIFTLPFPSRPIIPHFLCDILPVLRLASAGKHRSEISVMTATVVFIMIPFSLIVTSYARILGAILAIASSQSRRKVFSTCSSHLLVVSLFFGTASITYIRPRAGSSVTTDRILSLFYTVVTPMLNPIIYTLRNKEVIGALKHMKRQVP
Method in brief: as §1

UniProt Q8VGJ5 = target: T13, UniProt Q8VGJ5
T13 sequence (whole entry): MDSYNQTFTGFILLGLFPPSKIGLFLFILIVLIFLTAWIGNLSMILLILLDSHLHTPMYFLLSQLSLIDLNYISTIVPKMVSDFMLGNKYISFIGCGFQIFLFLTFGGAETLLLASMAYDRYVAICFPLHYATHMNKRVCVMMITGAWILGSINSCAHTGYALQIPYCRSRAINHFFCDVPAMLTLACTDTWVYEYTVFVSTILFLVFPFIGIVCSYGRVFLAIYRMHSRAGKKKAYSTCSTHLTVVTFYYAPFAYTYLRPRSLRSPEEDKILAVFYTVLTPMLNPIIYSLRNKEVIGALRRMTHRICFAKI
Method in brief: as §1

UniProt Q8VGL7 = target: T14, UniProt Q8VGL7
T14 sequence (whole entry): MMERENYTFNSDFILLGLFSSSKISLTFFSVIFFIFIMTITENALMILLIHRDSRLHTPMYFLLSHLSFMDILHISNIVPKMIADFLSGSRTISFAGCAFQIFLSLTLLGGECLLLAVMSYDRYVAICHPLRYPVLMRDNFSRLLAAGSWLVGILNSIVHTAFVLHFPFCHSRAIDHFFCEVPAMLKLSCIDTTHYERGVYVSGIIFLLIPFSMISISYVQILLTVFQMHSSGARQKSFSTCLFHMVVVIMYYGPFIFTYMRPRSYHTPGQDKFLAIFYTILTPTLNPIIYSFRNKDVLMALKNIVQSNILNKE
Method in brief: as §1

UniProt Q8VGM2 = target: T15, UniProt Q8VGM2
T15 sequence (whole entry): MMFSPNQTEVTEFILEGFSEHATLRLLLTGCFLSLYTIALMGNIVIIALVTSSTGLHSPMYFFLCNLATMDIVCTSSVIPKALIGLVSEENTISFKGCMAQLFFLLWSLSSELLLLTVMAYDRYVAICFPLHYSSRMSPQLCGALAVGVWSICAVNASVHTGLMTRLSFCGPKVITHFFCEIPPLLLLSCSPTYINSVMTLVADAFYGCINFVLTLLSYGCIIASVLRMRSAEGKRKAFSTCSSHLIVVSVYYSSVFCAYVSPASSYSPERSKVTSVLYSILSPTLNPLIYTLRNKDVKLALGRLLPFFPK
Method in brief: as §1

UniProt Q8VGP6 = target: T16, UniProt Q8VGP6
T16 sequence (whole entry): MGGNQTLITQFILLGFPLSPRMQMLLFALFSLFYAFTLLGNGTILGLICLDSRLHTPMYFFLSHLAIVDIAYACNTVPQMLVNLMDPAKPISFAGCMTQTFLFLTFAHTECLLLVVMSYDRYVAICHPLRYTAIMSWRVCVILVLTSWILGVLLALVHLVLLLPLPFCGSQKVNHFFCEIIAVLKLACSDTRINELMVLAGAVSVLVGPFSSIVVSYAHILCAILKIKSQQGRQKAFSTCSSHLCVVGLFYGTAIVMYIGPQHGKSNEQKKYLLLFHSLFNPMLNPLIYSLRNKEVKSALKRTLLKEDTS
Method in brief: as §1

UniProt Q8VGQ3 = target: T17, UniProt Q8VGQ3
T17 sequence (whole entry): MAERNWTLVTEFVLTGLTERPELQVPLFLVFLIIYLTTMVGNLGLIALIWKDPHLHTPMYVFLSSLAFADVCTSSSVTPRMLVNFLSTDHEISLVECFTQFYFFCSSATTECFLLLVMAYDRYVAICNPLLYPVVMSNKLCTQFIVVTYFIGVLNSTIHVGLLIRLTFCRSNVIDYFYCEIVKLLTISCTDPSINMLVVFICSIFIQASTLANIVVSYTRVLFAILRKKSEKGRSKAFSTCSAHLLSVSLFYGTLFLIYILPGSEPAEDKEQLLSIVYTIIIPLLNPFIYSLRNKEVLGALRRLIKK
Method in brief: as §1

Measured: odorant receptor agonist call

COC(=O)c1ccccc1O
inactive: UniProt Q8VG53 | UniProt Q8VG64 | UniProt Q8VGB9 | UniProt Q8VGC6 | UniProt Q8VGJ3 | UniProt Q8VGL0

CCCCCCC=O
inactive: all assays above

CCCCCCCCC=O
inactive: all assays above
